Data on 13 compounds can be found in publication PMC12431657, “Discovery and mechanistic insights of dibenzoylmethane as a broad spectrum inhibitor of coronavirus” (PLOS Pathogens, 2025).

Molecules are shown by their SMILES. Out of some 3,300 compounds screened, about 95 (3%) showed an effect of 50% or more. The list shows a part of the results.

The assay concerns HCoV-229E. Further details: species or system Huh-7; HTS, protection from HCoV-229E induced cell death, luminescent cell viability (CellCounting-Lite 2.0), inhibition rate. The note with it: 24 h post infection, 1 h compound pre-incubation; 10 µM; inhibitor.
`CCOC(=O)CCC(=O)O[C@H]1[C@H](O[C@@H]2[C@@H](C)[C@H](O[C@H]3C[C@@](C)(OC)[C@@H](O)[C@H](C)O3)[C@@H](C)C(=O)O[C@H](CC)[C@@](C)(O)[C@H](O)[C@@H](C)C(=O)[C@H](C)C[C@@]2(C)O)O[C@H](C)C[C@@H]1N(C)C` [Erythromycin Ethylsuccinate]: the “229E Inhibition rate” value was 7.6%.

Take `COc1ccc(C(=O)O)cc1` [p-Anisic acid]: the “229E Inhibition rate” value was 5.8%.

For `C/C=C(/C)C(=O)OC(C)(C)[C@@H]1Cc2c(ccc3ccc(=O)oc23)O1` [Columbianadin, columbianadin], the “229E Inhibition rate” value came to 29.6%.

Turning to `C[C@H](N)C(=O)O` [L-Alanine], the “229E Inhibition rate” value turned out to be 13.4%.

In the case of `CCC1=C[C@@H]2CN(C1)Cc1c([nH]c3ccccc13)[C@@](C(=O)OC)(c1cc3c(cc1OC)N(C)[C@H]1[C@@](O)(C(=O)OC)[C@H](OC(C)=O)[C@]4(CC)C=CCN5CC[C@]31[C@@H]54)C2` [Vinorelbine (ditartrate)], the “229E Inhibition rate” value came to 14.8%.

Regarding `O=c1c(O)c(-c2ccc(O)cc2)oc2c(O)c(O)cc(O)c12` [Herbacetin], the “229E Inhibition rate” value was 0%.

Consider `CC(C)=CCC[C@](C)(O[C@@H]1O[C@H](CO)[C@@H](O)[C@H](O)[C@H]1O)[C@H]1CC[C@]2(C)[C@@H]1[C@H](O)C[C@@H]1[C@@]3(C)CC[C@H](O)C(C)(C)[C@@H]3[C@@H](O[C@@H]3O[C@H](CO)[C@@H](O)[C@H](O)[C@H]3O[C@@H]3OC[C@@H](O)[C@H](O)[C@H]3O)C[C@]12C` [Notoginsenoside R1], for which the “229E Inhibition rate” value came out at 9.8%.

In the case of `OCc1ccccc1` [Benzyl alcohol], the “229E Inhibition rate” value came to 36.4%.

Consider `C[C@H](CC[C@@]1(O)O[C@H]2C[C@H]3[C@@H]4CC[C@@H]5C[C@@H](O[C@@H]6O[C@H](CO)[C@@H](O)[C@H](O)[C@H]6O[C@@H]6O[C@H](CO)[C@@H](O)[C@H](O)[C@H]6O)CC[C@]5(C)[C@H]4CC[C@]3(C)[C@H]2[C@@H]1C)CO[C@@H]1O[C@H](CO)[C@@H](O)[C@H](O)[C@H]1O` [Officinalisinin I], for which the “229E Inhibition rate” value amounted to 10.9%.

Take `CNCCC=C1c2ccccc2CCc2ccccc21` [Nortriptyline]: the “229E Inhibition rate” value is 0%.

As for `C[C@]12CC[C@@H](O)C[C@H]1CC[C@@H]1[C@@H]2C(=O)C[C@@]2(C)[C@H]1CC[C@]2(O)C(=O)CO` [Tetrahydrocortisone], the “229E Inhibition rate” value turned out to be 9.2%.

Take `C=C(C(=O)O)[C@@H]1CC[C@@H](C)[C@@H]2CCC(C)=C[C@@H]21` [Artemisic acid]: the “229E Inhibition rate” value is listed as 7.1%.

As for `OC[C@H]1O[C@@H](OCCc2ccc(O)cc2)[C@H](O)[C@@H](O)[C@@H]1O` [Salidroside], the “229E Inhibition rate” value is given as 10%.
